PubChem BioAssay AID743121 | NCATS, 2013

Test: 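Knock-downs that sensitise breast cancer cells to camptothecin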 (primary screen)
System: MDA-MB-231 cells, a human breast cancer line
Knock-down reagent: single siRNA against human genes, 20 nM siRNA (0.8 pmol per well)
Time to read-out: 120 h (drug added 48 h after transfection, read 72 h later)
Treatment: camptothecin 20 nM (about EC30) for 72 h; vehicle 0.1% DMSO in parallel plates
Read-out: 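CellTiter-Glo ATP signal, scaled to control siRNA as percent viability; sensitisation given as log2 of untreated divided by camptothecin-treated viability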
Direction: log2 vehicle/camptothecin viability: higher = stronger sensitisation to camptothecin
Call rule: 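Active genes have an RSA gene-level p-value below 0.001, computed from the ratios of their separate siRNAs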
Shown is a random part of about 26,000 reagents tested. 167 of all reagents (0.63%) were called active. 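Calls are per gene from RSA p-values that are not deposited; an individual active-marked siRNA can sensitise only weakly.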 Entries without a mark were called inactive. Further read-outs or replicates are left out here.

{"gene": "GNAI1 (GeneID 2770)", "PubChem SID": "SID164366882", "log2 vehicle/camptothecin viability": -0.132}
{"gene": "GNAI1 (GeneID 2770)", "PubChem SID": "SID164366884", "log2 vehicle/camptothecin viability": 0.0595}
{"gene": "GNAI1 (GeneID 2770)", "PubChem SID": "SID164366885", "log2 vehicle/camptothecin viability": -0.0933}
{"gene": "GNAI1 (GeneID 2770)", "PubChem SID": "SID164366886", "log2 vehicle/camptothecin viability": 0.471}
{"gene": "FGF9 (GeneID 2254)", "PubChem SID": "SID164364702", "log2 vehicle/camptothecin viability": -0.333}
{"gene": "FGF9 (GeneID 2254)", "PubChem SID": "SID164364703", "log2 vehicle/camptothecin viability": -0.394}
{"gene": "FGF9 (GeneID 2254)", "PubChem SID": "SID164364707", "log2 vehicle/camptothecin viability": 0.0209}
{"gene": "PRSS58 (GeneID 136541)", "PubChem SID": "SID164570712", "log2 vehicle/camptothecin viability": -0.265}
{"gene": "PRSS58 (GeneID 136541)", "PubChem SID": "SID164570713", "log2 vehicle/camptothecin viability": -0.221}
{"gene": "PRSS58 (GeneID 136541)", "PubChem SID": "SID164570714", "log2 vehicle/camptothecin viability": -0.348}
{"gene": "PRSS58 (GeneID 136541)", "PubChem SID": "SID164570716", "log2 vehicle/camptothecin viability": -0.102}
{"gene": "TMEM266 (GeneID 123591)", "PubChem SID": "SID164566774", "log2 vehicle/camptothecin viability": -0.264}
{"gene": "TMEM266 (GeneID 123591)", "PubChem SID": "SID164566776", "log2 vehicle/camptothecin viability": -0.0592}
{"gene": "TMEM266 (GeneID 123591)", "PubChem SID": "SID164566777", "log2 vehicle/camptothecin viability": -0.329}
{"gene": "TMEM266 (GeneID 123591)", "PubChem SID": "SID164566778", "log2 vehicle/camptothecin viability": -0.298}

Part of the list above, reformatted:
FGF9 (GeneID 2254) [SID164364707]: log2 vehicle/camptothecin viability = 0.0209
PRSS58 (GeneID 136541) [SID164570712]: log2 vehicle/camptothecin viability = -0.265
